Test results as given in article doi:10.1101/2023.05.29.23290174.
No constants are given. Whether binding was seen depends on the method and setting. Some binding calls cover weakened binding; strength is not graded here.

Amino acid sequences for entries named in this document (tags omitted). A change or cut given only in a name is not applied to a line headed by its entry. Chains listed by the source or under a name are the forms on record and can include a tag or linker.
UniProt P48436: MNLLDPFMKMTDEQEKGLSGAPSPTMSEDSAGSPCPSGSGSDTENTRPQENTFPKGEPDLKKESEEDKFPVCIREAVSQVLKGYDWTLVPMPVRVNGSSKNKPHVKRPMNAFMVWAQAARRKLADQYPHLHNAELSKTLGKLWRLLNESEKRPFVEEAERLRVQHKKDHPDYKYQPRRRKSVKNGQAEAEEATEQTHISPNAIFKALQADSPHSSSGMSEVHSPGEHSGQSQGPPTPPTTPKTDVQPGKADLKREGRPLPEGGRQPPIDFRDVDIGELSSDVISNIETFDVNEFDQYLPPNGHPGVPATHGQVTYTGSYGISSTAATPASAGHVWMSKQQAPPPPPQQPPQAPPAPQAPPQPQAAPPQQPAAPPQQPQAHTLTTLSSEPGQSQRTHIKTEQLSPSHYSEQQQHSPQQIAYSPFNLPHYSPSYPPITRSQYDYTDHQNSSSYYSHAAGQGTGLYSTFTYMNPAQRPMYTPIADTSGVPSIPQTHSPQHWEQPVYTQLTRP
SOX9 Ile73Thr variant (P48436, form named): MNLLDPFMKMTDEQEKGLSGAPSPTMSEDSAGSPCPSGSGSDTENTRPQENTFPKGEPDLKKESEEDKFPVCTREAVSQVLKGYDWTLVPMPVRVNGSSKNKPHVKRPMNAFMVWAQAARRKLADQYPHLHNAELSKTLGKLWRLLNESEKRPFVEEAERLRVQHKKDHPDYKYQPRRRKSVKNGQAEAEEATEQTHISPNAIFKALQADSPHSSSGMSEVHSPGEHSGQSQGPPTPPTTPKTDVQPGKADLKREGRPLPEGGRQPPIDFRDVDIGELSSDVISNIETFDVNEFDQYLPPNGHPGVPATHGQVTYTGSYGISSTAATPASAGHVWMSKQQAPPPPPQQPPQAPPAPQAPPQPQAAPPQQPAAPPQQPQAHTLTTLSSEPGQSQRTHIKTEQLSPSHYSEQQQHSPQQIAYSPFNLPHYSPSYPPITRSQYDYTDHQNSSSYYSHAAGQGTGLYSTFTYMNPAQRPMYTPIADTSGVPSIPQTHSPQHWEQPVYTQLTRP

What was measured:
[1] = target: SOX9 Ile73Thr variant (human) (UniProt P48436); test: native gel or EMSA
[2] = target: SOX9 (SRY-Box 9), wild type (human) (UniProt P48436); test: native gel or EMSA

Row | Substance | binding [1] | binding [2]
1 | SOX9 Ile73Thr variant (from UniProt P48436 1-509) | no binding | 
2 | SOX9 (SRY-Box 9), wild type (from UniProt P48436 1-509) |  | binds
